Assay results reported in patent publication US20220362386A1, “LIQUID COMPOSITIONS COMPRISING A LEVODOPA AMINO ACID CONJUGATE AND USES THEREOF” (NeuroDerm, Ltd., priority 2019, published 2022).
Structures can show the parent of a compound that is named as a salt. The name of at least one read-out is uncertain. Non-standard residues stand in square brackets, D forms with d. Residues, ends and D or L forms follow the SMILES beside them. Dopa = N[C@@H](Cc1ccc(O)c(O)c1)C(=O)O

Assay: Analytical stability of LD-Tyr/CD formulations by HPLC (Tables 42-45c)
Details: t = 28 h at 32° C. compared to t = 0
[1] = NB 144-32 (F1), 37% LD-Tyr/0.5% CD
[2] = NB 144-34 (F2), 44% LD-Tyr/0.5% CD
[3] = NB 144-39 (F3), 30% LD-Tyr/0.5% CD

Row | SMILES | % Recovery [1] [%] | % Recovery [2] [%] | % Recovery [3] [%]
1 | C[C@@](Cc1ccc(O)c(O)c1)(NN)C(=O)O [CD] | 99.90 | 98.86 | 97.53
2 | N[C@@H](Cc1ccc(O)c(O)c1)C(=O)N[C@@H](Cc1ccc(O)cc1)C(=O)O [LD-Tyr TFA salt, Levodopa Tyrosine TFA Salt] (H-[Dopa]-Tyr-OH) | 96.73 | 96.83 | 98.82
